From the supplement of paper PMC10849652
Some of the results follow. Residues, ends and D or L forms follow the SMILES beside them. *: point of attachment. Cbz = O=C(OCc1ccccc1)*

The chains behind the UniProt entries cited, without tags or fusion partners. Where a name states a change or a piece, a line headed by the entry shows the natural chain unless it says otherwise.
UniProt Q9H0D6: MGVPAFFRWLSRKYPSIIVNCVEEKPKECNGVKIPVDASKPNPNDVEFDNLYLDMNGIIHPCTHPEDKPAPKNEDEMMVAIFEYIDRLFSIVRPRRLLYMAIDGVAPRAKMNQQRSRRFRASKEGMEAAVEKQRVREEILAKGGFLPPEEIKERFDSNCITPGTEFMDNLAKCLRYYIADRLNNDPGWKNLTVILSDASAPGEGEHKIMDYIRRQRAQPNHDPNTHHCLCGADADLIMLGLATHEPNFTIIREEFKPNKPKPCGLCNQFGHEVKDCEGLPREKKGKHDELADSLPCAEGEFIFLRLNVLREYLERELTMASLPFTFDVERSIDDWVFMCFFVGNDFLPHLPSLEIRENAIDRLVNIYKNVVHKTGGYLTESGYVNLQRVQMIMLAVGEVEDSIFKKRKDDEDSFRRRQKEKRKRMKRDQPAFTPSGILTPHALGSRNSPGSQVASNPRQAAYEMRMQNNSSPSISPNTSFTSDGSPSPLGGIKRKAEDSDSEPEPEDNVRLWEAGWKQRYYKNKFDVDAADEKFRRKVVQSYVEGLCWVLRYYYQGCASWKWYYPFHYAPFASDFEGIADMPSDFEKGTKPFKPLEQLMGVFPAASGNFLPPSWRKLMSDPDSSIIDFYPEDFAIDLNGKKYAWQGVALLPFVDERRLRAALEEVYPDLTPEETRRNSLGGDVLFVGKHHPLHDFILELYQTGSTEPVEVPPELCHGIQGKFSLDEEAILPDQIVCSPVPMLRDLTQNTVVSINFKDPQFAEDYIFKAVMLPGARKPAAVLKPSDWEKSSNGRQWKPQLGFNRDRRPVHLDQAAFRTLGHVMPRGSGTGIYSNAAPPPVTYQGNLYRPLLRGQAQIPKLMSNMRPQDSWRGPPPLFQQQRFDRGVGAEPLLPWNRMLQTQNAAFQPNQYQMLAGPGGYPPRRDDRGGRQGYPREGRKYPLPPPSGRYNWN
UniProt Q8NF64: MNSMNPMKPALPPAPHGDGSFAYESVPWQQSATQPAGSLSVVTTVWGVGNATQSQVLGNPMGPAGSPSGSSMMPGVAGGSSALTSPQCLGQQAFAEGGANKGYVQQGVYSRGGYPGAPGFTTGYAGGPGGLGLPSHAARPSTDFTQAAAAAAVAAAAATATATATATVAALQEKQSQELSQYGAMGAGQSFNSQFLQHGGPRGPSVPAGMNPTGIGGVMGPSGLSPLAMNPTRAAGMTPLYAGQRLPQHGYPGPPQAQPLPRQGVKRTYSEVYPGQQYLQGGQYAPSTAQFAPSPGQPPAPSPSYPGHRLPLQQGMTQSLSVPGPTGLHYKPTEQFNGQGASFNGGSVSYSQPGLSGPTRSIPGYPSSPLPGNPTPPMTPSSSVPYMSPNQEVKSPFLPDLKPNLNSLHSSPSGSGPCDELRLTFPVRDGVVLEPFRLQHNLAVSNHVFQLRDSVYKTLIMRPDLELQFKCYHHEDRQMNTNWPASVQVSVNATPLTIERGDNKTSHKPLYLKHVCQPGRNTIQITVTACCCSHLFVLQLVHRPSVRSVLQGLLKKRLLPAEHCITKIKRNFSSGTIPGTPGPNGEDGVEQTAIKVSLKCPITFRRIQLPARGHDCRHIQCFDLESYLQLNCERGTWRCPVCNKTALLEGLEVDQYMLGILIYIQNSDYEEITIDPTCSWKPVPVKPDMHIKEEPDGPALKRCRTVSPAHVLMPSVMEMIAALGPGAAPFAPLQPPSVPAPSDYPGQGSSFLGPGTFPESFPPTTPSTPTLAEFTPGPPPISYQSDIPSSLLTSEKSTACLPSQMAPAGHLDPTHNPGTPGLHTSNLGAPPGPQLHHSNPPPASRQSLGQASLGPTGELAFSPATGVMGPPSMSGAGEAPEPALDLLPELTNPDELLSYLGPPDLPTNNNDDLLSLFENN
UniProt O43542: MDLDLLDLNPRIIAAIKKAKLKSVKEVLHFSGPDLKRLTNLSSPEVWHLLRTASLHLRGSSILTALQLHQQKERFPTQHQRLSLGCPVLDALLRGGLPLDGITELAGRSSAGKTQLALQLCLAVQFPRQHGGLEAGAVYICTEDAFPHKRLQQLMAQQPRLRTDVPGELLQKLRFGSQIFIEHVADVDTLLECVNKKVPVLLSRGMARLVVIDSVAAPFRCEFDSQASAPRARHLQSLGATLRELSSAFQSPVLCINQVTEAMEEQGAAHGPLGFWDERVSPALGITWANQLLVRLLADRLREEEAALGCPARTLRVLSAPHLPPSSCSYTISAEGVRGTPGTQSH
UniProt Q8IY57: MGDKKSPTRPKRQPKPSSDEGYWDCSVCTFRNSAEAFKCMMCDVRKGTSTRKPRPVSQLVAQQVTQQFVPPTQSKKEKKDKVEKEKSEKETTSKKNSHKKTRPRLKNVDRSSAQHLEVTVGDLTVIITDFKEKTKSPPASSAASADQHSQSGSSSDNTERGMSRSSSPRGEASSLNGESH
UniProt P12956: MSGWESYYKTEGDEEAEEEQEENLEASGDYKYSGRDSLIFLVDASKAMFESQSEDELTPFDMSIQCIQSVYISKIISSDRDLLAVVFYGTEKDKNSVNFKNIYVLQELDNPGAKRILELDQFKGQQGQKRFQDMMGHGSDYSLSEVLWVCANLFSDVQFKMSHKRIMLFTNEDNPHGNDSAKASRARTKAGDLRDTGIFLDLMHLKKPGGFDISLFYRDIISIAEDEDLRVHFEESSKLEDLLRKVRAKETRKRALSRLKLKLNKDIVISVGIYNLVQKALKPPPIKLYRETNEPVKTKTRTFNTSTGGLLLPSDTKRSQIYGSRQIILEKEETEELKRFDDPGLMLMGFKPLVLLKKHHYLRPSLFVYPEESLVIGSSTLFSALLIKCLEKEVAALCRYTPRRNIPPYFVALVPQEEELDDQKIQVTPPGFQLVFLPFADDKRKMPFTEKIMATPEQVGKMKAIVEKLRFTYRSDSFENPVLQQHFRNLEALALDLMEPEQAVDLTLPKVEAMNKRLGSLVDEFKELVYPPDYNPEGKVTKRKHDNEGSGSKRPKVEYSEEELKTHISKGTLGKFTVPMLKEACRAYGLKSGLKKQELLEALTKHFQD
UniProt P52747: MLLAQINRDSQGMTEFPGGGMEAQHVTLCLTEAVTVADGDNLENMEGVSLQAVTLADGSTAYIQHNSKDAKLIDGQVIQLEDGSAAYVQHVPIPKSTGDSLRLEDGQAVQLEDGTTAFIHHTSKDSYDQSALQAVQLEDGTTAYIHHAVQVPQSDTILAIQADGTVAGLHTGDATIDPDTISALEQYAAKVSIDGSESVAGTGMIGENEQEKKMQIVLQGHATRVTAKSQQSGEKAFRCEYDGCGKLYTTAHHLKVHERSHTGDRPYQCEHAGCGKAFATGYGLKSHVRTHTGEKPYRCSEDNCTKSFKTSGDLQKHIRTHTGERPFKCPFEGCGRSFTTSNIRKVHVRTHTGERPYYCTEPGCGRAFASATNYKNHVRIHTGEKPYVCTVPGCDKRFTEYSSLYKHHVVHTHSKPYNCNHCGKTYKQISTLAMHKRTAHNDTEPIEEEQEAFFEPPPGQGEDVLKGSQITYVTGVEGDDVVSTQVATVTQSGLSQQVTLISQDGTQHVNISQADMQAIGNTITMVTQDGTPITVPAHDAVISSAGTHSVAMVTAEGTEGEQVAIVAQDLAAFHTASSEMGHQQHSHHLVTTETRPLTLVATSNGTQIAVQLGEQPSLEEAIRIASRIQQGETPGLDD
UniProt O43670: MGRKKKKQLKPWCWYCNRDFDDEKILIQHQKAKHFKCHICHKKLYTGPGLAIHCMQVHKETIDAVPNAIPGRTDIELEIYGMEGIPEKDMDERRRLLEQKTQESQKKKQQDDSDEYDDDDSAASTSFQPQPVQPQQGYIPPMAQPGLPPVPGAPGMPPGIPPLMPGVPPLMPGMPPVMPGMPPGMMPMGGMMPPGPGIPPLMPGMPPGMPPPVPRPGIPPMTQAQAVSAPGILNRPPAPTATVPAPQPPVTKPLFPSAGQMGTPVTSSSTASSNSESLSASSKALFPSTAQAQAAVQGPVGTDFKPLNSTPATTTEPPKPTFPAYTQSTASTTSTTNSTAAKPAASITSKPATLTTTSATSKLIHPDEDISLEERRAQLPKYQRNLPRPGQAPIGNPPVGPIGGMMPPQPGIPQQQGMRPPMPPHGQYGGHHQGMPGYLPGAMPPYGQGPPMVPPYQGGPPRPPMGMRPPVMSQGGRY
UniProt P54577: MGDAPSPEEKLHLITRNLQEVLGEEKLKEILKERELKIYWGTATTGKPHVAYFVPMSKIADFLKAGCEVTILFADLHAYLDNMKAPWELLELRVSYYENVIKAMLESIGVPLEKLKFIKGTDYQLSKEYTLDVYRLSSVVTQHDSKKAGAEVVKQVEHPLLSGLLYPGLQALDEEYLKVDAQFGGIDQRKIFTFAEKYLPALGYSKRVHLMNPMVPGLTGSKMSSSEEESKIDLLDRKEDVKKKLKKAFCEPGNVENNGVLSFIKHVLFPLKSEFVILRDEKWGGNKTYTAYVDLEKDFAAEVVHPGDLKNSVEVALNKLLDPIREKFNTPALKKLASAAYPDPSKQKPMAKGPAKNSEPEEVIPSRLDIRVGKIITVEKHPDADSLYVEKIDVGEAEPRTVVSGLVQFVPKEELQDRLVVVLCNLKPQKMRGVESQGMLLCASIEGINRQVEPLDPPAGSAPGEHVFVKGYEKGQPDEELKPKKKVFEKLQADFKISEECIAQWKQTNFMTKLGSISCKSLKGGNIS
UniProt O95159: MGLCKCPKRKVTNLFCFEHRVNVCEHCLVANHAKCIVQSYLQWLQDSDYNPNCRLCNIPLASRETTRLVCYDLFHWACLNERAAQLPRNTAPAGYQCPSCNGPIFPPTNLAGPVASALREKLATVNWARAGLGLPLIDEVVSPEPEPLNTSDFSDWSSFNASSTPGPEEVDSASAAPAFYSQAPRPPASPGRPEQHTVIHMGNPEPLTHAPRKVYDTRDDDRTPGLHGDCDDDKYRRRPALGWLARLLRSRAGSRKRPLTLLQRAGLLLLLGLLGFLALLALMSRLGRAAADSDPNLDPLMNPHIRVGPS
UniProt Q5SVZ6: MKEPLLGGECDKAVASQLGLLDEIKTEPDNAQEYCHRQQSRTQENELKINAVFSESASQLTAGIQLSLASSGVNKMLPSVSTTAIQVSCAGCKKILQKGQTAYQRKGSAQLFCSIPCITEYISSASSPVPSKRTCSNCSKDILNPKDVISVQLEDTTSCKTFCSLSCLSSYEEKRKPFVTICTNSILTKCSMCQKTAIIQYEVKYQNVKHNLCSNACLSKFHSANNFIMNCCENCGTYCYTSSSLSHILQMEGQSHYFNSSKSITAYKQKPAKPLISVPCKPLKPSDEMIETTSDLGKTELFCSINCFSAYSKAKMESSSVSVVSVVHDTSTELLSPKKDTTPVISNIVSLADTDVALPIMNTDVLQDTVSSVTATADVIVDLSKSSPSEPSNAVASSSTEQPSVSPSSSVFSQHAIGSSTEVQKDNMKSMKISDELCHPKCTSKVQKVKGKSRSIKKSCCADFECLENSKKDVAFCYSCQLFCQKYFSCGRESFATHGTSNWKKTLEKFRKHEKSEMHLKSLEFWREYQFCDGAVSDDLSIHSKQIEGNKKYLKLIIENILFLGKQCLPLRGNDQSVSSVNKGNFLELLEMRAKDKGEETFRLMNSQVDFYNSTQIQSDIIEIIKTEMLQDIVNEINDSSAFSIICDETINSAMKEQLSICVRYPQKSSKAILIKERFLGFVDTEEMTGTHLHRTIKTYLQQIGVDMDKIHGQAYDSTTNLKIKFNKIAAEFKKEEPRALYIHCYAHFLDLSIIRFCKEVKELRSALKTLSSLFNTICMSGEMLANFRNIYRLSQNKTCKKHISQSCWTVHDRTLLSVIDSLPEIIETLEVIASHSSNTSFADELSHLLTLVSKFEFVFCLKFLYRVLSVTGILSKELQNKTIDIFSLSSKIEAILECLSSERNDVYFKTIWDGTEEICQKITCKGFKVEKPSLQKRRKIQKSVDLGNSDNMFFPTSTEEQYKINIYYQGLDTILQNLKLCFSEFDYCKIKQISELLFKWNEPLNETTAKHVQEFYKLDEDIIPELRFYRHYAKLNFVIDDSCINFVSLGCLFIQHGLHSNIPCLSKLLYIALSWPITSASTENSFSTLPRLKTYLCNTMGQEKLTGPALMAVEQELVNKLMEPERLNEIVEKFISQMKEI
UniProt P31946: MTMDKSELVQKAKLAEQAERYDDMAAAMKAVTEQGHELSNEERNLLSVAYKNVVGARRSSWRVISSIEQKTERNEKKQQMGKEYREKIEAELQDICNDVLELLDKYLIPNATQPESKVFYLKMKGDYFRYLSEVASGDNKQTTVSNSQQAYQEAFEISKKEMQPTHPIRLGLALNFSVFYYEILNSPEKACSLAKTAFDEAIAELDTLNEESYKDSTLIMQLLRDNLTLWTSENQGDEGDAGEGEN
UniProt Q6FIF0: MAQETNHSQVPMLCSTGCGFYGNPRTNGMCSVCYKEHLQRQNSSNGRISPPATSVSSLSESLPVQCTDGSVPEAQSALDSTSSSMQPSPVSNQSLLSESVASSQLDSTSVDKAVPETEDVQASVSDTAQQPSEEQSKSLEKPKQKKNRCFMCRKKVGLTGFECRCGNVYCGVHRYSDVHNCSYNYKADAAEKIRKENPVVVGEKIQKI

How the values were obtained:
Assay in all cases: log2 fold change, soluble protein after heating vs DMSO (PISA); higher = thermal stabilisation; K562 cells, 10 uM, 30 min; active = over 0.2 and 3.5 SD of the protein, either way, in both replicates (recomputed)
[1] = compound: C1COCCN1CCN2C3=CC=CC=C3N=C2NC(=O)C4=CC(=CC=C4)[N+](=O)[O-] [IRAK-1-4 Inhibitor I]
How it was run: (§1)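 Soluble protein was defined as the supernatant after 21,000xg for 90 min. It came from K562 cells at 2×10^6 cells/mL given 10 μM compound for 30 min, heated in aliquots for 3 min across 48°C-58°C, pooled, and extracted in PBS with 0.5% NP-40 at 4°C, and was quantified by TMTpro 16plex LC-MS/MS with equalised channel sums. Thermal stability against control samples, from duplicates, is reported as log2 fold change.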

[2] = compound: C=CC(=O)N1CCC[C@@H](n2nc(-c3ccc(Oc4ccccc4)cc3)c3c(N)ncnc32)C1 [ibrutinib]
How it was run: as §1

[3] = compound: CC(=O)c1cnc2ccc(-c3cc(Cl)c(O)c(Cl)c3)nc2c1N[C@H]1CC[C@H](CN(C)C)CC1
How it was run: as §1

[4] = compound: CC(C)(C)Cn1c(N)nc2ccc(-c3[nH]c(C(C)(C)C)nc3-c3ccc(F)cc3)nc21 [ralimetinib]
How it was run: as §1

[5] = compound: CC(C)(O)CC(=O)NCCn1ccc2ncnc(Nc3ccc(Oc4cccc(C(F)(F)F)c4)c(Cl)c3)c21
How it was run: as §1

[6] = compound: CC(C)C1=C2N=C(C=C(N2N=C1)NCC3=CC=CC=C3)NCCCCCCN
How it was run: as §1

[7] = compound: CC(C)C[C@@H](C=O)NC(=O)[C@H](CC(C)C)NC(=O)[C@H](CC(C)C)NC(=O)OCc1ccccc1
How it was run: as §1

[8] = compound: CC(C)N(C[C@H]1O[C@@H](n2cnc3c(N)ncnc32)[C@H](O)[C@@H]1O)[C@H]1C[C@@H](CCc2nc3cc(C(C)(C)C)ccc3[nH]2)C1 [pinometostat]
How it was run: as §1

[9] = compound: CC1=C(C(CC(=O)N1)C2=CC=C(C=C2)C(F)(F)F)C(=O)NC3=C(C=C4C(=C3)C=NN4)F
How it was run: as §1

[10] = compound: CC1=C(C2=C(C=C1)C(=O)C3=CC=CC=C3N2CCCN)C
How it was run: as §1

Target	log2 fold change [1]	log2 fold change [2]	log2 fold change [3]	log2 fold change [4]	log2 fold change [5]	log2 fold change [6]	log2 fold change [7]	log2 fold change [8]	log2 fold change [9]	log2 fold change [10]
XRN2 (UniProt Q9H0D6)	inactive: -0.052	inactive: 0.055	inactive: -0.01	inactive: 0.028	inactive: 0.023	inactive: -0.02	inactive: 0.04	inactive: 0.006	inactive: 0.06	inactive: 0.128
ZMIZ2 (UniProt Q8NF64)	inactive: 0.046	inactive: 0.025	inactive: -0.019	inactive: -0.077	inactive: 0.021	inactive: 0.056	inactive: 0.245	inactive: -0.009	inactive: -0.042	inactive: -0.151
ZDHHC18 (UniProt Q9NUE0)	inactive: 0.036	inactive: -0.19	inactive: 0.013	inactive: 0.099	inactive: -0.053	inactive: 0.034	inactive: -0.027	inactive: -0.003	inactive: -0.017	inactive: 0.062
ZNF148 (UniProt Q9UQR1)	inactive: -0.01	inactive: -0.155	inactive: 0.151	inactive: 0.046	inactive: 0.07	inactive: -0.1	inactive: 0.097	inactive: -0.029	inactive: -0.084	inactive: 0.281
ZNF24 (UniProt P17028)	inactive: -0.033	inactive: -0.049	inactive: -0.003	inactive: 0.15	inactive: 0.018	inactive: -0.127	inactive: 0.141	inactive: 0.228	inactive: -0.079	inactive: -0.088
ZFYVE16 (UniProt Q7Z3T8)	inactive: 0.101	inactive: 0.014	inactive: -0.034	inactive: -0.011	inactive: -0.01	inactive: -0.051	inactive: 0.006	inactive: 0.019	inactive: -0.029	inactive: 0.045
YIF1B (UniProt Q5BJH7)	inactive: 0.015	inactive: 0.056	inactive: -0.03	inactive: -0.018	inactive: -0.071	inactive: -0.087	inactive: 0.069	inactive: -0.048	inactive: 0.032	inactive: 0.078
YIPF3 (UniProt Q9GZM5)	inactive: -0.003	inactive: 0.008	inactive: -0.085	inactive: -0.097	inactive: 0.031	inactive: -0.011	inactive: -0.027	inactive: -0.11	inactive: 0.006	inactive: 0.111
XRCC3 (UniProt O43542)	inactive: -0.014	inactive: 0.023	inactive: 0.056	inactive: -0.021	inactive: -0.121	inactive: -0.031	inactive: 0.002	inactive: 0.029	inactive: -0.033	inactive: 0.036
ZCCHC8 (UniProt Q6NZY4)	inactive: 0.052	inactive: 0	inactive: 0.045	inactive: -0.027	inactive: -0.038	inactive: -0.048	inactive: 0.031	inactive: 0.042	inactive: -0.017	inactive: 0.062
YAF2 isoform 5 (UniProt Q8IY57)	inactive: 0.164	inactive: 0.023	inactive: 0.002	inactive: -0.039	inactive: -0.044	inactive: -0.084	inactive: -0.054	inactive: 0.018	inactive: 0.071	inactive: -0.229
YBX3 (UniProt P16989)	inactive: -0.111	inactive: 0.099	inactive: 0.149	inactive: 0.093	inactive: 0.229	inactive: 0.102	inactive: 0.109	inactive: 0.232	inactive: 0.025	inactive: -0.501
XRCC6 (UniProt P12956)	inactive: -0.046	inactive: -0.057	inactive: -0.12	inactive: -0.004	inactive: -0.124	inactive: -0.195	inactive: 0.074	inactive: -0.01	–	inactive: -0.008
ZNF143 (UniProt P52747)	inactive: 0.108	inactive: 0.01	inactive: -0.044	inactive: 0.112	inactive: 0.028	inactive: -0.158	inactive: -0.119	inactive: 0.014	–	inactive: -0.043
ZNF207 isoform 4 (UniProt O43670)	inactive: 0	inactive: 0.082	inactive: 0.003	inactive: -0.04	inactive: -0.04	inactive: 0.081	inactive: -0.02	inactive: -0.034	inactive: 0.007	inactive: 0.015
YARS (UniProt P54577)	inactive: -0.063	inactive: -0.035	inactive: 0.004	inactive: 0.1	inactive: -0.066	inactive: -0.178	inactive: 0.024	inactive: 0.106	inactive: -0.01	inactive: 0.048

Exported comma-delimited: entries from further up.
Target,log2 fold change [1],log2 fold change [2],log2 fold change [3],log2 fold change [4],log2 fold change [5],log2 fold change [6],log2 fold change [7],log2 fold change [8],log2 fold change [9],log2 fold change [10]
ZFYVE16 (UniProt Q7Z3T8),inactive: 0.101,inactive: 0.014,inactive: -0.034,inactive: -0.011,inactive: -0.01,inactive: -0.051,inactive: 0.006,inactive: 0.019,inactive: -0.029,inactive: 0.045
YIF1B (UniProt Q5BJH7),inactive: 0.015,inactive: 0.056,inactive: -0.03,inactive: -0.018,inactive: -0.071,inactive: -0.087,inactive: 0.069,inactive: -0.048,inactive: 0.032,inactive: 0.078
YIPF3 (UniProt Q9GZM5),inactive: -0.003,inactive: 0.008,inactive: -0.085,inactive: -0.097,inactive: 0.031,inactive: -0.011,inactive: -0.027,inactive: -0.11,inactive: 0.006,inactive: 0.111
XRCC3 (UniProt O43542),inactive: -0.014,inactive: 0.023,inactive: 0.056,inactive: -0.021,inactive: -0.121,inactive: -0.031,inactive: 0.002,inactive: 0.029,inactive: -0.033,inactive: 0.036
ZCCHC8 (UniProt Q6NZY4),inactive: 0.052,inactive: 0,inactive: 0.045,inactive: -0.027,inactive: -0.038,inactive: -0.048,inactive: 0.031,inactive: 0.042,inactive: -0.017,inactive: 0.062
YAF2 isoform 5 (UniProt Q8IY57),inactive: 0.164,inactive: 0.023,inactive: 0.002,inactive: -0.039,inactive: -0.044,inactive: -0.084,inactive: -0.054,inactive: 0.018,inactive: 0.071,inactive: -0.229
YBX3 (UniProt P16989),inactive: -0.111,inactive: 0.099,inactive: 0.149,inactive: 0.093,inactive: 0.229,inactive: 0.102,inactive: 0.109,inactive: 0.232,inactive: 0.025,inactive: -0.501
XRCC6 (UniProt P12956),inactive: -0.046,inactive: -0.057,inactive: -0.12,inactive: -0.004,inactive: -0.124,inactive: -0.195,inactive: 0.074,inactive: -0.01,–,inactive: -0.008

The listing continues:

Target	log2 fold change [1]	log2 fold change [2]	log2 fold change [3]	log2 fold change [4]	log2 fold change [5]	log2 fold change [6]	log2 fold change [7]	log2 fold change [8]	log2 fold change [9]	log2 fold change [10]
XRCC5 (UniProt P13010)	inactive: -0.264	inactive: -0.104	inactive: -0.214	inactive: 0.083	inactive: -0.175	active: -0.505	inactive: 0.126	inactive: -0.01	–	inactive: -0.065
ZFPL1 (UniProt O95159)	inactive: 0.021	inactive: 0.087	inactive: 0.023	inactive: 0.152	inactive: 0.04	inactive: 0.146	inactive: 0.038	inactive: -0.11	–	inactive: 0.079
XPO6 (UniProt Q96QU8)	inactive: -0.131	inactive: 0.246	inactive: -0.038	inactive: 0.083	active: 0.434	inactive: -0.189	inactive: -0.023	active: 0.646	–	inactive: 0.067
XXYLT1 (UniProt Q8NBI6)	inactive: 0	inactive: -0.039	inactive: -0.006	inactive: -0.007	inactive: 0.003	inactive: -0.006	inactive: -0.014	inactive: -0.004	inactive: 0.01	inactive: 0.019
ZMYM1 (UniProt Q5SVZ6)	inactive: 0.006	inactive: 0.066	inactive: 0.055	inactive: 0.078	inactive: -0.01	inactive: 0.09	inactive: 0.006	inactive: 0.001	–	inactive: 0.024
XPO5 (UniProt Q9HAV4)	inactive: -0.004	inactive: -0.027	inactive: 0.032	inactive: 0.001	inactive: -0.141	inactive: -0.21	inactive: -0.021	inactive: -0.01	–	active: -0.204
YARS2 (UniProt Q9Y2Z4)	inactive: -0.075	inactive: -0.048	inactive: -0.062	inactive: 0.015	inactive: -0.236	inactive: -0.057	inactive: 0.075	inactive: -0.049	inactive: -0.175	inactive: 0.135
YLPM1 (UniProt P49750)	inactive: -0.06	inactive: -0.117	inactive: -0.093	inactive: 0.043	inactive: -0.002	inactive: -0.086	inactive: 0.028	inactive: 0.003	–	inactive: 0.023
YIPF6 (UniProt Q96EC8)	inactive: 0.029	inactive: -0.001	inactive: 0.008	inactive: -0.045	inactive: 0.019	inactive: -0.044	inactive: 0.02	inactive: 0.023	–	inactive: 0.145
YES1 (UniProt P07947)	inactive: -0.152	inactive: 0.188	active: -0.819	inactive: -0.09	inactive: -0.054	inactive: 0	inactive: 0.068	inactive: 0.035	–	inactive: 0.043
YWHAB (UniProt P31946)	inactive: 0.127	inactive: -0.013	inactive: -0.019	inactive: -0.063	inactive: -0.013	inactive: 0.014	inactive: -0.003	inactive: -0.031	–	inactive: -0.072
ZBTB43 (UniProt O43298)	inactive: -0.043	inactive: 0.064	inactive: 0.008	inactive: 0.012	inactive: 0.175	inactive: 0.138	inactive: 0.05	inactive: -0.05	–	active: -1.06
YWHAG (UniProt P61981)	inactive: 0.094	inactive: 0.039	inactive: 0.057	inactive: 0.187	inactive: 0.033	inactive: 0.093	inactive: -0.125	inactive: -0.038	inactive: 0.011	inactive: -0.031
ZFAND6 (UniProt Q6FIF0)	inactive: 0.032	inactive: 0.006	inactive: 0.041	inactive: -0.048	inactive: 0.015	inactive: 0.075	inactive: 0.119	inactive: -0.048	–	inactive: 0
YBX1 (UniProt P67809)	inactive: -0.117	inactive: 0.103	inactive: 0.155	inactive: 0.082	inactive: 0.162	inactive: 0.038	inactive: 0.083	inactive: 0.053	–	active: -0.637
